This note sets out measurements from patent publication US20240239907A1.

Chains of the proteins cited; added tags and fusions are not shown. Lines headed by an entry give the natural chain unless they say otherwise; changes in a name come on top.
UniProt O00574: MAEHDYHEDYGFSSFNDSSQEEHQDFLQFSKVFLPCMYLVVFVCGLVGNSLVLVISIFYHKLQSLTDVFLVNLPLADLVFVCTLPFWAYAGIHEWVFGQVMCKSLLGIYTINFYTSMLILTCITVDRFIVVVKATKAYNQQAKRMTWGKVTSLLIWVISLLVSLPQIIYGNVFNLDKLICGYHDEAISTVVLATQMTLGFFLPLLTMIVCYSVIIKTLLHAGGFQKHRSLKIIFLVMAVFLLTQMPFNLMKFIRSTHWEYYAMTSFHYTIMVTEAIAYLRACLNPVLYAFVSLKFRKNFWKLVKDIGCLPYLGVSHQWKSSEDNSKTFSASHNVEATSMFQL

Results are given in words; binding and its absence hold for the method and conditions named. Some results given as binding are weak or reduced against the parent protein; the word gives no strength.

The target of this assay is human CXCR6 (human) (UniProt O00574). In words: screening on cells overexpressing CXCR6, one single concentration, yes/no.

B1: CNGs-2F11 (antibody, V domains shown)
VH: EVQLQQSGPVLVKPGASVRMSCKASGYTFTEYYINWVKQGHGKSLEWIGIFNPYNGNTKYNQNFKGKATLTVDMSSSTAYMELSSLTSEDSAVYYCSRPYSNFGQGTLVTVSA
VL: DVLLTQIPLSLPVSLGDQASISCRSSQSIVHSNGNTYLEWYLQKPGQSPKLLIYKVSNRFSGVPDRFSGSGSGTDFTLKISRVGAEDLGVYYCFQGSHVPFTFGSGTKLEIK
Take B1: the binding entry was “binds”.
